The reference is the same well before dosing, and untreated signal decays as well.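 Labels refer to human fibroblasts, largely primary: uterine (C12385, HUF), lung (H6013), bone (Hs27A), adrenal (HADF), skin (WS1), plus mammary HMF and breast cancer-associated Hs343T. Cancer lines are basal-like or mesenchymal-like triple-negative breast cancer. The paper counts as hits responses shifting over 3x the replicate standard deviation. The tissue of the other fibroblasts is not given here.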
System: MDAMB436
Assay: relative JC-1 red fluorescence (viability) vs pre-drug, coculture with fibroblast (fraction); higher = more viable cancer cells
Procedure: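 JC-1 labelled TNBC cells cocultured 1:1 (1,500 cells each) with CellTrace Violet stained primary or stromal fibroblasts in 384-well plates in FluoroBrite medium, treated with one of 42 anticancer drugs at 0.1, 1, 10 or 100 uM. JC-1 red fluorescence (mitochondrial integrity in cancer cells only) was read by plate reader every 8 h for 72 h. Values are normalised to each well's pre-drug value. The stock of one drug was tenfold lower, so its dose labels may be too high.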

CO[C@@]12[C@H](COC(N)=O)C3=C(C(=O)C(C)=C(N)C3=O)N1C[C@@H]1N[C@@H]12 [Mitomycin C]
relative JC-1 red fluorescence
Details	8 h	16 h	24 h	32 h	40 h	48 h	56 h	64 h	72 h
0.1 µM, coculture fibroblast: C12385	0.8276	0.706	0.653	0.578	0.522	0.502	0.473	0.453	0.446
0.1 µM, coculture fibroblast: H6013	0.799	0.683	0.649	0.635	0.608	0.619	0.586	0.563	0.513
0.1 µM, coculture fibroblast: H6019	0.76	0.685	0.662	0.593	0.547	0.519	0.469	0.432	0.401
0.1 µM, coculture fibroblast: H6076	0.782	0.667	0.636	0.58409	0.5474	0.515	0.507	0.495	0.482
0.1 µM, coculture fibroblast: H6231	0.827	0.737	0.688	0.615	0.575	0.534	0.516	0.484	0.46
0.1 µM, coculture fibroblast: HADF	0.826	0.7517	0.706	0.675	0.659	0.663	0.611	0.601	0.553
0.1 µM, coculture fibroblast: HCFa	0.77	0.646	0.5988	0.567	0.53237	0.543	0.479	0.459	0.41
0.1 µM, coculture fibroblast: HCPF	0.7726	0.683	0.638	0.577	0.554	0.519	0.494	0.481	0.457
0.1 µM, coculture fibroblast: HHSteC	0.87	0.798	0.784	0.764	0.753	0.765	0.699	0.681	0.621
0.1 µM, coculture fibroblast: HMF	0.792	0.6752	0.617	0.574	0.545	0.512	0.503	0.484	0.484
0.1 µM, coculture fibroblast: HPFa	0.8395	0.7402	0.7204	0.6728	0.65879	0.674	0.5961	0.567	0.5
0.1 µM, coculture fibroblast: HUF	0.8155	0.701	0.655	0.574	0.515	0.486	0.463	0.448	0.437
0.1 µM, coculture fibroblast: Hs5	0.796	0.723	0.699	0.65	0.635	0.597	0.61	0.575	0.568
0.1 µM, coculture fibroblast: Hs27A	0.812	0.742	0.702	0.6731	0.644	0.684	0.62	0.616	0.563
0.1 µM, coculture fibroblast: Hs343T	0.807	0.693	0.634	0.588	0.556	0.521	0.498	0.487	0.479
0.1 µM, coculture fibroblast: WS1	0.796	0.6867	0.629	0.549	0.497	0.464	0.426	0.387	0.367
1 µM, coculture fibroblast: C12385	0.705	0.674	0.661	0.5842	0.554	0.543	0.536	0.522	0.521
1 µM, coculture fibroblast: H6013	0.752	0.717	0.703	0.676	0.664	0.686	0.633	0.617	0.574
1 µM, coculture fibroblast: H6019	0.721	0.6802	0.666	0.591	0.548	0.521	0.482	0.456	0.427
1 µM, coculture fibroblast: H6076	0.736	0.678	0.684	0.642	0.626	0.609	0.621	0.638	0.653
1 µM, coculture fibroblast: H6231	0.743	0.617	0.685	0.603	0.597	0.5719	0.581	0.575	0.56
1 µM, coculture fibroblast: HADF	0.798	0.756	0.727	0.71	0.696	0.729	0.673	0.675	0.631
1 µM, coculture fibroblast: HCFa	0.731	0.711	0.675	0.65	0.634	0.662	0.598	0.588	0.539
1 µM, coculture fibroblast: HCPF	0.747	0.698	0.708	0.657	0.641	0.613	0.602	0.593	0.584
1 µM, coculture fibroblast: HHSteC	0.7773	0.7626	0.7401	0.7121	0.7262	0.742	0.691	0.683	0.636
1 µM, coculture fibroblast: HMF	0.785	0.69	0.672	0.624	0.598	0.575	0.573	0.553	0.546
1 µM, coculture fibroblast: HPFa	0.8577	0.769	0.733	0.69	0.684	0.6939	0.631	0.609	0.551
1 µM, coculture fibroblast: HUF	0.832	0.741	0.726	0.658	0.614	0.584	0.561	0.55	0.542
1 µM, coculture fibroblast: Hs5	0.7361	0.68	0.664	0.615	0.614	0.576	0.594	0.582	0.574
1 µM, coculture fibroblast: Hs27A	0.792	0.711	0.723	0.719	0.721	0.797	0.733	0.739	0.682
1 µM, coculture fibroblast: Hs343T	0.752	0.661	0.628	0.584	0.555	0.519	0.515	0.509	0.507
1 µM, coculture fibroblast: WS1	0.7282	0.669	0.646	0.57	0.522	0.503	0.479	0.457	0.444
10 µM, coculture fibroblast: C12385	0.8273	0.742	0.671	0.604	0.552	0.535	0.518	0.509	0.507
10 µM, coculture fibroblast: H6013	0.829	0.7479	0.69	0.68	0.653	0.656	0.624	0.607	0.57
10 µM, coculture fibroblast: H6019	0.7436	0.6513	0.6164	0.527	0.474	0.448	0.421	0.413	0.408
10 µM, coculture fibroblast: H6076	0.777	0.656	0.573	0.526	0.49	0.462	0.447	0.446	0.432
10 µM, coculture fibroblast: H6231	0.7672	0.677	0.6033	0.5481	0.526	0.4854	0.487	0.473	0.462
10 µM, coculture fibroblast: HADF	0.844	0.778	0.713	0.691	0.651	0.652	0.592	0.57	0.522
10 µM, coculture fibroblast: HCFa	0.908	0.859	0.804	0.773	0.718	0.704	0.634	0.613	0.563
10 µM, coculture fibroblast: HCPF	0.7824	0.7058	0.63	0.577	0.548	0.519	0.506	0.495	0.491
10 µM, coculture fibroblast: HHSteC	0.8312	0.764	0.736	0.709	0.707	0.725	0.677	0.67	0.633
10 µM, coculture fibroblast: HMF	0.775	0.668	0.54	0.492	0.456	0.4256	0.405	0.389	0.382
10 µM, coculture fibroblast: HPFa	0.855	0.77	0.743	0.709	0.707	0.726	0.674	0.675	0.647
10 µM, coculture fibroblast: HUF	0.85	0.718	0.697	0.621	0.564	0.538	0.515	0.51	0.502
10 µM, coculture fibroblast: Hs5	0.848	0.74	0.676	0.608	0.5695	0.524	0.51	0.471	0.467
10 µM, coculture fibroblast: Hs27A	0.793	0.7443	0.75	0.749	0.765	0.806	0.782	0.782	0.715
10 µM, coculture fibroblast: Hs343T	0.7571	0.629	0.524	0.485	0.453	0.419	0.406	0.384	0.379
10 µM, coculture fibroblast: WS1	0.824	0.697	0.649	0.579	0.52	0.498	0.475	0.461	0.461
100 µM, coculture fibroblast: C12385	0.762	0.72	0.723	0.652	0.636	0.631	0.631	0.634	0.638
100 µM, coculture fibroblast: H6013	0.7703	0.75	0.746	0.738	0.744	0.778	0.747	0.747	0.715
100 µM, coculture fibroblast: H6019	0.7369	0.6852	0.698	0.6555	0.643	0.6391	0.6182	0.6097	0.6033
100 µM, coculture fibroblast: H6076	0.658	0.559	0.584	0.5568	0.5639	0.559	0.581	0.593	0.587
100 µM, coculture fibroblast: H6231	0.6583	0.624	0.7004	0.6444	0.6502	0.642	0.654	0.655	0.642
100 µM, coculture fibroblast: HADF	0.787	0.792	0.792	0.785	0.825	0.876	0.834	0.834	0.793
100 µM, coculture fibroblast: HCFa	0.7779	0.7367	0.731	0.737	0.764	0.804	0.765	0.772	0.731
100 µM, coculture fibroblast: HCPF	0.663	0.608	0.641	0.604	0.611	0.597	0.594	0.592	0.582
100 µM, coculture fibroblast: HHSteC	0.8097	0.8017	0.784	0.761	0.765	0.78	0.737	0.729	0.689
100 µM, coculture fibroblast: HMF	0.666	0.615	0.652	0.621	0.6437	0.6374	0.6592	0.65173	0.656
100 µM, coculture fibroblast: HPFa	0.8145	0.79604	0.772	0.74948	0.7722	0.8019	0.7587	0.7595	0.728
100 µM, coculture fibroblast: HUF	0.792	0.714	0.703	0.641	0.614	0.619	0.61	0.611	0.61
100 µM, coculture fibroblast: Hs5	0.673	0.597	0.5926	0.5444	0.5483	0.522	0.546	0.533	0.532
100 µM, coculture fibroblast: Hs27A	0.7703	0.7824	0.8054	0.817	0.8509	0.94	0.859	0.855	0.786
100 µM, coculture fibroblast: Hs343T	0.678	0.5793	0.571	0.538	0.522	0.505	0.516	0.508	0.519
100 µM, coculture fibroblast: WS1	0.74	0.702	0.714	0.667	0.664	0.67	0.67	0.666	0.6649

Source: the supplement of paper PMC6078165
